Publication PMC6712033, “Proteasome subunit α1 overexpression preferentially drives canonical proteasome biogenesis and enhances stress tolerance in yeast” (Scientific Reports, 2019)
Numbering of substitutions follows the chain as printed. Names and notes keep the numbering of the source. Results are given in words; binding and its absence hold for the method and conditions named. Binding seen in cells or lysates may run through a third protein. Some results given as binding are weak or reduced against the parent protein; the word gives no strength. Each block holds one binder with its values, some of them ahead of it.

Experiments:
[1] = biological target: proteasome subunit α4 of the α4-α4 [DHFR] reporter (α4 [DH] and α4 [FR]) (S. cerevisiae) (UniProt P40303); test: split reporter; split-DHFR complementation in living yeast; α4 [DH] and α4 [FR] from centromeric plasmids in an α4Δ strain with α3 or PBA3 deleted; growth on methotrexate plates, three days at 30 °C
[2] = biological target: proteasome subunit α4 of the α4-α4 [DHFR] reporter (α4 [DH] and α4 [FR]) (S. cerevisiae) (UniProt P40303); test: split reporter; split-DHFR complementation in living yeast; α4 [DH] and α4 [FR] from centromeric plasmids in an α4Δ strain with WT copies of α3 and PBA3; growth on methotrexate plates, three days at 30 °C
[3] = biological target: proteasome subunit α4 with N79C and I155C substitutions (S. cerevisiae) (UniProt P40303); test: cross-linking; engineered disulfide crosslinking in yeast extracts (WT or pba3Δ, empty vector or α1 overexpressed); 250 µM CuCl2, 25 °C, 10 minutes; 50 mM HEPES pH 7.5, 150 mM NaCl, 5 mM MgCl2, 2 mM ATP; non-reducing SDS-PAGE, anti-His immunoblot; reversed by DTT
[4] = biological target: T1, proteasome subunit α2-K160C (S. cerevisiae, UniProt P23639 1-250, K160C); test: as above
T1 construct: 20S proteasome core particle subunit α2, S. cerevisiae, with an engineered cysteine at the α2-α3 interface; Detected with an anti-His antibody (TetraHis); also called His (α2); source: S. cerevisiae (WT or pba3Δ), in cell extract
T1 sequence (looked up): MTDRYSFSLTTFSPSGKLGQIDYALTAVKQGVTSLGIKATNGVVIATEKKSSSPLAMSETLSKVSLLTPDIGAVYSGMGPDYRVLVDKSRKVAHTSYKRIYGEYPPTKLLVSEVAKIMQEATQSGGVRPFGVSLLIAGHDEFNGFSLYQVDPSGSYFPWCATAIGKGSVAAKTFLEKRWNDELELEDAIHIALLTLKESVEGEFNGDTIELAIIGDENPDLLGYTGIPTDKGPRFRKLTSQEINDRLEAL

- binding [1]: binds
- binding [2]: binds weakly
B1: proteasome subunit α4 of the α4-α4 [DHFR] reporter (α4 [DH] and α4 [FR]) (protein, UniProt P40303 1-254)
chain: MSGYDRALSIFSPDGHIFQVEYALEAVKRGTCAVGVKGKNCVVLGCERRSTLKLQDTRITPSKVSKIDSHVVLSFSGLNADSRILIEKARVEAQSHRLTLEDPVTVEYLTRYVAGVQQRYTQSGGVRPFGVSTLIAGFDPRDDEPKLYQTEPSGIYSSWSAQTIGRNSKTVREFLEKNYDRKEPPATVEECVKLTVRSLLEVVQTGAKNIEITVVKPDSDIVALSSEEINQYVTQIEQEKQEQQEQDKKKKSNH

- binding [3]: binds
B2: proteasome subunit α4 with N79C and I155C substitutions (protein, UniProt P40303 1-254)
chain: B1 chain with N79C, I155C

- binding [4]: binds
B3: proteasome subunit α3-L56C (natural protein, S. cerevisiae, UniProt P23638 1-258, looked up)
chain: MGSRRYDSRTTIFSPEGRLYQVEYALESISHAGTAIGIMASDGIVLAAERKVTSTCLEQDTSTEKLYKLNDKIAVAVAGLTADAEILINTARIHAQNYLKTYNEDIPVEILVRRLSDIKQGYTQHGGLRPFGVSFIYAGYDDRYGYQLYTSNPSGNYTGWKAISVGANTSAAQTLLQMDYKDDMKVDDAIELALKTLSKTTDSSALTYDRLEFATIRKGANDGEVYQKIFKPQEIKDILVKTGITKKDEDEEADEDMK
notes: 20S proteasome core particle subunit α3, S. cerevisiae, with an engineered cysteine at the α2-α3 interface; source: S. cerevisiae (WT or pba3Δ), in cell extract
